{
  "source": "patent US8318815B2",
  "about": "“Method for treatment of tumors using nordihydroguaiaretic acid derivatives” (priority 1999, dated 2012)",
  "test_system": "C3 tumor",
  "assay": "C3 tumor growth in mice, local (intratumoral) injection",
  "assay_type": "in vivo",
  "settings": "per mouse; for Lesion Size Day 1: Day 1 = treatment begun",
  "protocol": "Thirty six C57b1-16 NCR mice were injected with 5×10^5 C3 cells between the shoulders on the backs of the mice. Twenty four of the mice developed tumors within 20 days. […]\n36 C57b1-16NCR mice were injected with 5×10^5 C3 cells/mouse. Injections were 100 μL made subcutaneously between the shoulders on the backs of the mice. Cells were suspended in low-salt HBSS and suspension uniformity was maintained by gentle vortexing.\n24 mice developed tumors. Their lesion sizes were measured by dial caliper. These mice were shaved, weight and treatment begun (Day 1). Four were sequestered as controls. Control mice received 50 μl DMSO injected intratumorally daily. […]. Injections were made to several regions of tumor. Mice anesthetized with ether or metaphane prior to injection.\nThe treatment regimen and results were as follows: • Day 10: Mice weighed again. […]. The skin at the lesion site of #17 cracked with the “dried-out tumor” showing. It was dissected, and lesion excised and weighed. […]. Remaining control mice (#1, 3, 4) were examined non-invasively and were carrying tumors. • Day 21: Tumor sizes from control mice were measured by dial caliper. […]. […]",
  "key": {"[1]": {"settings": "mice carrying multiple tumors, treated lesion"}},
  "note": "Values joined by “and” are separate entries in the source; they are usually repeats but may differ in a detail not shown here. Equal values may be shown once. For at least one compound, name, drawing or mass did not settle the structure.",
  "data": [
    {"smiles": "COc1ccc(C[C@@H](C)[C@@H](C)Cc2ccc(OC)c(OC)c2)cc1OC", "note": "[M4N, tetra-O-methylnordihydroguaiaretic acid]", "values": [
      {"measurement": "Lesion Size Day 7", "setting": "[1]", "value": "8 × 9 × 6 mm and 7 × 9 × 8 mm and 9.5 × 10 × 9 mm"},
      {"measurement": "Lesion Size Day 1", "setting": "[1]", "value": "2.5 × 2.5 × 2.5 mm and 1.3 × 5 × 0.75 mm and 2.3 × 2.5 × 2.3 mm"},
      {"measurement": "Lesion Size Day 1", "setting": "mice with single tumors", "value": "1 × 1.3 × 1 mm and 3.8 × 3.8 x 3.5 mm and 2.8 × 2.8 × 2.8 mm and 2.3 × 2.3 × 2.3 mm"},
      {"measurement": "Lesion Size Day 7", "setting": "mice with single tumors, daily intratumoral injection", "value": "9 × 8 × 5 mm and 6 × 7 × 7 mm and 9.5 × 10 × 9 mm and 8 × 9 × 6 mm and 5 × 4 × 4 mm and 9 × 6 × 4 mm and 6 × 6 × 4 mm"}
    ]}
  ]
}
